Results on two molecules are retold here after article PMC6986101, “The mitochondrial HSP90 paralog TRAP1 forms an OXPHOS-regulated tetramer and is involved in mitochondrial metabolic homeostasis” (BMC Biology, 2020).

Where a chain is given by its changes, count along the chain named. Names may count otherwise. These are yes or no findings as the source states them, for the method shown. Some binding calls cover weakened binding; strength is not graded here. Sequences can lack the tags named with a protein.

Assay [1] concerns the target WT TRAP1 with C-terminal HA tag (pcDNA3.1 (+) MTS-TRAP1-HA) (human) (UniProt Q12931). Put plainly: native gel or EMSA; clear native PAGE (6% or 8% Tris-glycine, 4 °C) of 30 μg mitochondrial extract, immunoblot with anti-TRAP1; cells also treated with hypoxia, oligomycin, rotenone, antimycin A or LDHi, or grown on different carbon sources.
For assay [2], the target named is TRAP1 mutant E115A/R402A with C-terminal HA tag (human) (UniProt Q12931). The assay is described as above.

B1: WT TRAP1 with C-terminal HA tag (pcDNA3.1 (+) MTS-TRAP1-HA) (protein, UniProt Q12931 60-704)
chain: STQTAEDKEEPLHSIISSTESVQGSTSKHEFQAETKKLLDIVARSLYSEKEVFIRELISNASDALEKLRHKLVSDGQALPEMEIHLQTNAEKGTITIQDTGIGMTQEELVSNLGTIARSGSKAFLDALQNQAEASSKIIGQFGVGFYSAFMVADRVEVYSRSAAPGSLGYQWLSDGSGVFEIAEASGVRTGTKIIIHLKSDCKEFSSEARVRDVVTKYSNFVSFPLYLNGRRMNTLQAIWMMDPKDVREWQHEEFYRYVAQAHDKPRYTLHYKTDAPLNIRSIFYVPDMKPSMFDVSRELGSSVALYSRKVLIQTKATDILPKWLRFIRGVVDSEDIPLNLSRELLQESALIRKLRDVLQQRLIKFFIDQSKKDAEKYAKFFEDYGLFMREGIVTATEQEVKEDIAKLLRYESSALPSGQLTSLSEYASRMRAGTRNIYYLCAPNRHLAEHSPYYEAMKKKDTEVLFCFEQFDELTLLHLREFDKKKLISVETDIVVDHYKEEKFEDRSPAAECLSEKETEELMAWMRNVLGSRVTNVKVTLRLDTHPAMVTVLEMGAARHFLRMQQLAKTQEERAQLLQPTLEINPRHALIKKLNQLRASEPGLAQLLVDQIYENAMIAAGLVDDPRAMVGRLNELLVKALERH
For the molecule B1, in assay [1], the binding result is “binds”.

B2: TRAP1 mutant E115A/R402A with C-terminal HA tag (protein, UniProt Q12931 60-704)
chain: B1 chain with E56A, R343A
On to B2, for which, in assay [2], the binding result was “binds”.
